Amino acid sequences for entries named in this document (tags omitted). A change or cut given only in a name is not applied to a line headed by its entry.
UniProt Q9C0D4: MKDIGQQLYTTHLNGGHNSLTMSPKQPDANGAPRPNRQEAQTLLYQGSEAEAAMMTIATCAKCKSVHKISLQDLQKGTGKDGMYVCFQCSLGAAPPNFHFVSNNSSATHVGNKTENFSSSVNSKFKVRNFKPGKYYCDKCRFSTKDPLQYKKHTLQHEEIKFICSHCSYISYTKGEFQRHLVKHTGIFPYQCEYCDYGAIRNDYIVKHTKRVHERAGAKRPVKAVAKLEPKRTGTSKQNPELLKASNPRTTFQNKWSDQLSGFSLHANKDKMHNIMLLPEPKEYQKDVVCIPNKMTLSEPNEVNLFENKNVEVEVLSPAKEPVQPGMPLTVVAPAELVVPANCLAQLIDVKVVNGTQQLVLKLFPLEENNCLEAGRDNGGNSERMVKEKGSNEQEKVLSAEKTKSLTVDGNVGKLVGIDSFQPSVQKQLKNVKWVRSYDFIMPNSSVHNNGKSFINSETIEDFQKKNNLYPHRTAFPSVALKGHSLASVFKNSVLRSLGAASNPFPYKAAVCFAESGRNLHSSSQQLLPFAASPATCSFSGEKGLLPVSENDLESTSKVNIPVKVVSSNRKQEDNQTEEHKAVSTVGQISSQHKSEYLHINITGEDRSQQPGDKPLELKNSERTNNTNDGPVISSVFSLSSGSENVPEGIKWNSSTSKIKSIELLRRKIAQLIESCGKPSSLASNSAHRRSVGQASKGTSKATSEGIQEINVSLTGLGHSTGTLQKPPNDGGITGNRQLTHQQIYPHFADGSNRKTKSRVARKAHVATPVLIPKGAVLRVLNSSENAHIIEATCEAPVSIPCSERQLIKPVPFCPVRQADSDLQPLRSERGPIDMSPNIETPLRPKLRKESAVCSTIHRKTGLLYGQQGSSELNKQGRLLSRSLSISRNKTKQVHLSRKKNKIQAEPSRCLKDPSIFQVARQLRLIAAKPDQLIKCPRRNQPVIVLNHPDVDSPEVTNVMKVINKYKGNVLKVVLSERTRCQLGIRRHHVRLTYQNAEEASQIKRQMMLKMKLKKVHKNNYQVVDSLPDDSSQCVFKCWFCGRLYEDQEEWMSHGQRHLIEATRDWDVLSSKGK

According to publication doi:10.1101/2022.09.15.508097:

Assays:
Assay in all cases: fluorescence microscopy-based interaction-trap
[1] = molecular target: TetR-EYFP-ZNF518B^770–987 KSS/C (human) (UniProt Q9C0D4)
[2] = molecular target: TetR-EYFP-ZNF518B^KSS/C (human) (UniProt Q9C0D4)
[3] = molecular target: TetR-EYFP-ZNF518B^KSS/N (human) (UniProt Q9C0D4)
[4] = molecular target: TetR-EYFP-ZNF518B^KSS/NC (human) (UniProt Q9C0D4)

Measured: binding

B1: Halo-CENP-B^133–599 (domain or fragment, UniProt P07199 133-599)
chain: VSCSGVARARARNAAPRTPAAPASPAAVPSEGSGGSTTGWRAREEQPPSVAEGYASQDVFSATETSLWYDFLPDQAAGLCGGDGRPRQATQRLSVLLCANADGSEKLPPLVAGKSAKPRAGQAGLPCDYTANSKGGVTTQALAKYLKALDTRMAAESRRVLLLAGRLAAQSLDTSGLRHVQLAFFPPGTVHPLERGVVQQVKGHYRQAMLLKAMAALEGQDPSGLQLGLTEALHFVAAAWQAVEPSDIAACFREAGFGGGPNATITTSLKSEGEEEEEEEEEEEEEEGEGEEEEEEGEEEEEEGGEGEELGEEEEVEEEGDVDSDEEEEEDEESSSEGLEAEDWAQGVVEAGGSFGAYGAQEEAQCPTLHFLEGGEDSDSDSEEEDDEEEDDEDEDDDDDEEDGDEVPVPSFGEAMAYFAMVKRYLTSFPIDDRVQSHILHLEHDLVHVTRKNHARQAGVRGLGHQS
modifications: Halo Tag TMR ligand on the Halo tag
binds: all assays above

Results are given in words; binding and its absence hold for the method and conditions named. Binding calls can cover weak binding; strength is not graded here.
